This is one part of the list.
Assays:
Assay in all cases: log2 fold change, soluble protein after heating vs DMSO (PISA); higher = thermal stabilisation; K562 lysate, 10 uM; active = over 0.2 and 3.5 SD of the protein, either way, in both replicates (recomputed)
[1] = compound: C=CC(=O)N1CCC[C@@H](n2nc(-c3ccc(Oc4ccccc4)cc3)c3c(N)ncnc32)C1 [ibrutinib]
Summary of the method: (§1)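 Pellets of K562 cells were dounce-homogenised in PBS pH 7.4 with 1 mM MgCl2, and the crude extract was held at 1 mg/mL protein for a 30 min treatment with 10 μM compound. Aliquots were heated for 3 min over 48°C-58°C and pooled before NP-40 was added to 0.5% at 4°C. The supernatant from 21,000xg for 90 min was quantified by TMTpro 16plex LC-MS/MS with channel sums equalised. Values are reported from duplicates as log-two fold change in thermal stability relative to solvent controls.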

Sequences of proteins named here, by UniProt entry; tags and fusion partners are left off. A change or cut given only in a name is not applied to a line headed by its entry.
UniProt Q9H1C7: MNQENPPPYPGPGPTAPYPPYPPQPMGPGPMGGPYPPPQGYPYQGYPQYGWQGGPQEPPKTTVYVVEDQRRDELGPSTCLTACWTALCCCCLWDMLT
UniProt Q8TDD1, whole entry, looked up: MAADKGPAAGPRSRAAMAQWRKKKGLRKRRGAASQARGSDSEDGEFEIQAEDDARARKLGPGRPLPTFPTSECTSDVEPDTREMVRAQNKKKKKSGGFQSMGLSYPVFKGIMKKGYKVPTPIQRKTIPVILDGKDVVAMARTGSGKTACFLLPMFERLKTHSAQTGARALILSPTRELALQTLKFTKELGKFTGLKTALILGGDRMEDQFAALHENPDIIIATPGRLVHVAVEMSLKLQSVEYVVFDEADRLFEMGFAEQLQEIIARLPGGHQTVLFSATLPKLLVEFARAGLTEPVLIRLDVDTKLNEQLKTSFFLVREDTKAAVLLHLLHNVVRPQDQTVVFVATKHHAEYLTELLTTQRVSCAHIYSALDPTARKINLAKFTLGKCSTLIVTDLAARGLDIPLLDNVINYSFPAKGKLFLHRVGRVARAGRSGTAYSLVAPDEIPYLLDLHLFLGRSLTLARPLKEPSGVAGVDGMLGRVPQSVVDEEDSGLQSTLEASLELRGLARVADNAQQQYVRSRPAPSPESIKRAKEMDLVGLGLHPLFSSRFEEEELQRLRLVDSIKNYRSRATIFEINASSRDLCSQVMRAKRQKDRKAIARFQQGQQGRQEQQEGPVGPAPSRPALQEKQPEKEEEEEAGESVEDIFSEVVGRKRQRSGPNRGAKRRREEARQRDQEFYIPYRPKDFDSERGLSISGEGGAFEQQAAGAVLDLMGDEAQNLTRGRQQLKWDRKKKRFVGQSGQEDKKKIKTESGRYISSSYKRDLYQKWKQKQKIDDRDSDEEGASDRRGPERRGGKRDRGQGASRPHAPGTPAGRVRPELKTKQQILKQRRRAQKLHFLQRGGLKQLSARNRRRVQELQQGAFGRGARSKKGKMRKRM
UniProt Q15438: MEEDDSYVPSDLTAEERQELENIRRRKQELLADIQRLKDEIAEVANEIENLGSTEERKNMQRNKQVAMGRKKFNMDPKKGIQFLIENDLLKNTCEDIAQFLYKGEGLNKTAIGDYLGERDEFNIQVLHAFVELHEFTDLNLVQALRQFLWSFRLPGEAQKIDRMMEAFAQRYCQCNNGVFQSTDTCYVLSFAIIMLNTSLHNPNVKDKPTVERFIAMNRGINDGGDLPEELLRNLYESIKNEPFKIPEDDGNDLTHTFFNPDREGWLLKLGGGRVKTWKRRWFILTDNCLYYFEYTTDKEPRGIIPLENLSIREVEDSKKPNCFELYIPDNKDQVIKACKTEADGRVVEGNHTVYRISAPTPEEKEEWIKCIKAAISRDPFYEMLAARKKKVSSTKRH
UniProt O94830: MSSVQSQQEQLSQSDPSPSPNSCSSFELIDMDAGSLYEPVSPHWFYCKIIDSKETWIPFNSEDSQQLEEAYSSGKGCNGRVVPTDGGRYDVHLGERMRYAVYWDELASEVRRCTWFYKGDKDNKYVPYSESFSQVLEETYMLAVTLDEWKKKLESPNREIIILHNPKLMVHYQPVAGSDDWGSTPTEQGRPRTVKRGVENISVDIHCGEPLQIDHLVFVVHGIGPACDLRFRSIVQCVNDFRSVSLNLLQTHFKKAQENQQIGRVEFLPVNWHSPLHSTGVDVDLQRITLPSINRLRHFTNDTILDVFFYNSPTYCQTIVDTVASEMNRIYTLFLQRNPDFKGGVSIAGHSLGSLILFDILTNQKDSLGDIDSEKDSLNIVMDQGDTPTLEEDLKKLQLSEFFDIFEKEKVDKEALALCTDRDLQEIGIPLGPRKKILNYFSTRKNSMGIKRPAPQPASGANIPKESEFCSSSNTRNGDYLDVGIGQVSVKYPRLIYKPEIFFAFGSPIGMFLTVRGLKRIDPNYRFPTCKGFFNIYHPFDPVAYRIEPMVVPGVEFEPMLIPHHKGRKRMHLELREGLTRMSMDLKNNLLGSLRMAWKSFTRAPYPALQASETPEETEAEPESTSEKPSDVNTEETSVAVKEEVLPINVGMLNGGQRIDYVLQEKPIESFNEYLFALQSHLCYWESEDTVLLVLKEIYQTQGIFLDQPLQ
UniProt Q9UJU6: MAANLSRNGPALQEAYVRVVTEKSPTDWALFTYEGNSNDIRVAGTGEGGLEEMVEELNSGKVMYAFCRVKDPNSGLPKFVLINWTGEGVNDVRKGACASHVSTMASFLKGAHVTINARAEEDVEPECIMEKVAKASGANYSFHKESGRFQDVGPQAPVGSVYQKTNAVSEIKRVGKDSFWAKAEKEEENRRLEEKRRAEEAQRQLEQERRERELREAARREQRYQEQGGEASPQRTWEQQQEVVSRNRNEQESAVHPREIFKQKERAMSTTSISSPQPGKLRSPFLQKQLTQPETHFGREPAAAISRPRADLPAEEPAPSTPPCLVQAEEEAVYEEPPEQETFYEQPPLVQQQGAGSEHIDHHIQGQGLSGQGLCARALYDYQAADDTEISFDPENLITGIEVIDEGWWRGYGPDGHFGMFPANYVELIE
UniProt Q5QP82: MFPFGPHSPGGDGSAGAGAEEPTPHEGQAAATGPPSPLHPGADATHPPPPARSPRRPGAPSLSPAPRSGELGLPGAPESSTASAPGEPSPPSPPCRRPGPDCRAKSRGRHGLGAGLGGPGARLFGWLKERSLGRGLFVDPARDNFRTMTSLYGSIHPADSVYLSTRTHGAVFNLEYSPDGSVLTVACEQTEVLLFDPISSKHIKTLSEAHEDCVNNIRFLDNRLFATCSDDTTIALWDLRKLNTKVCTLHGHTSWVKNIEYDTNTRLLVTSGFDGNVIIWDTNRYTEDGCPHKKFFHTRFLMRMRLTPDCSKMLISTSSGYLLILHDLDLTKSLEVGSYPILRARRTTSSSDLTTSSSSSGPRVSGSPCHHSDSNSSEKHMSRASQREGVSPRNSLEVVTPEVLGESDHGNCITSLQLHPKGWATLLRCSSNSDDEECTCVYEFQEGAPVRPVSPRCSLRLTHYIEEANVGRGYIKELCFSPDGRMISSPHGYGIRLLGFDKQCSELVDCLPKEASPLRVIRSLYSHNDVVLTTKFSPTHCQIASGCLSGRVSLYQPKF
UniProt Q08345: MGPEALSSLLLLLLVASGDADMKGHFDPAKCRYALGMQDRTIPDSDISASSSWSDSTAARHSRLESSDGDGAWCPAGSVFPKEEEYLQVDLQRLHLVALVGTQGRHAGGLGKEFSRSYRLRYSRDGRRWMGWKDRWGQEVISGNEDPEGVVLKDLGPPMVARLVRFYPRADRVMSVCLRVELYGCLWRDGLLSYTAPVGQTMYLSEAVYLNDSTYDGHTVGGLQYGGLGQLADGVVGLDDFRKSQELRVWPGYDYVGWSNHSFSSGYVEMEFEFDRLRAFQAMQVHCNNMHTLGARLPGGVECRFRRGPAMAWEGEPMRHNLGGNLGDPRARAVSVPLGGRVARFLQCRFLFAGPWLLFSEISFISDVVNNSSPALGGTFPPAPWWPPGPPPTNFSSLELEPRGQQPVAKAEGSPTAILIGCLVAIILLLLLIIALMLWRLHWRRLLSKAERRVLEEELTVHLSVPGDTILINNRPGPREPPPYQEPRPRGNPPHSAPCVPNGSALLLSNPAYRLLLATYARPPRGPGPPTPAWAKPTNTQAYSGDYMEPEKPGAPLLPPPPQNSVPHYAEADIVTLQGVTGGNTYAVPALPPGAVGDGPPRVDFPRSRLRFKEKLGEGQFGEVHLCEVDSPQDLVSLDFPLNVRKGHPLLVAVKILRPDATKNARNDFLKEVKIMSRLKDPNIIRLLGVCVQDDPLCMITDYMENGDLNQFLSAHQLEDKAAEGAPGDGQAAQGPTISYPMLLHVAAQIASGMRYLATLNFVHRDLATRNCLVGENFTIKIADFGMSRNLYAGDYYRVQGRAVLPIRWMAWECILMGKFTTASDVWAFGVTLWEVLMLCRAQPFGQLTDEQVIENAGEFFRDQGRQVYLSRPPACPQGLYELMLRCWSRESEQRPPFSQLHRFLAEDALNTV
UniProt P35659: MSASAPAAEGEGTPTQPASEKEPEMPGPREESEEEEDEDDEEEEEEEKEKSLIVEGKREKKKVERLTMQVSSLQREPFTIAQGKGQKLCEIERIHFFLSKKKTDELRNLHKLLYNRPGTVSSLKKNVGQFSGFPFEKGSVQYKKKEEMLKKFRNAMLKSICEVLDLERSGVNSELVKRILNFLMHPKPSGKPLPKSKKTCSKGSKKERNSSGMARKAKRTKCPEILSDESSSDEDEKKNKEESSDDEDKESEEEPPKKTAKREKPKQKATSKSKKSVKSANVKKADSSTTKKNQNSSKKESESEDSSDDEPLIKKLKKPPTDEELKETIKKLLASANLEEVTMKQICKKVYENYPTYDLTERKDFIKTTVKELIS
UniProt Q9UBU7: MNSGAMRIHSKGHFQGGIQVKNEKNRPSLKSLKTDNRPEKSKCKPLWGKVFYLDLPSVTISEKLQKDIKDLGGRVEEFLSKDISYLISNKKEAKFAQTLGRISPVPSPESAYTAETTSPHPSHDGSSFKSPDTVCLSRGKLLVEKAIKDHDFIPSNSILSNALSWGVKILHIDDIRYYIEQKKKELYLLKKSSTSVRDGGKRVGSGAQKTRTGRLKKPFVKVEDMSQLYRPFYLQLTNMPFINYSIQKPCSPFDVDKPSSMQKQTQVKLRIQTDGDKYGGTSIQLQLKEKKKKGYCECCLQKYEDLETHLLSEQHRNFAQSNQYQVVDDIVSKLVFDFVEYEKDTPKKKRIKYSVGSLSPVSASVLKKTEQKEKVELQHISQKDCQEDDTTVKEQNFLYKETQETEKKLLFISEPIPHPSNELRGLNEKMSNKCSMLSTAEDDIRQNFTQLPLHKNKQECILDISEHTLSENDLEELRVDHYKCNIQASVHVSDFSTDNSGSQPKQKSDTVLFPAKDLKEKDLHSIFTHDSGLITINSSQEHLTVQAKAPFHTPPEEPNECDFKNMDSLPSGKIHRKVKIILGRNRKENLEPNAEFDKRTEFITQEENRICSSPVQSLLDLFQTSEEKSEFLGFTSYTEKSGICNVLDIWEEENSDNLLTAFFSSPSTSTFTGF
UniProt Q96C86: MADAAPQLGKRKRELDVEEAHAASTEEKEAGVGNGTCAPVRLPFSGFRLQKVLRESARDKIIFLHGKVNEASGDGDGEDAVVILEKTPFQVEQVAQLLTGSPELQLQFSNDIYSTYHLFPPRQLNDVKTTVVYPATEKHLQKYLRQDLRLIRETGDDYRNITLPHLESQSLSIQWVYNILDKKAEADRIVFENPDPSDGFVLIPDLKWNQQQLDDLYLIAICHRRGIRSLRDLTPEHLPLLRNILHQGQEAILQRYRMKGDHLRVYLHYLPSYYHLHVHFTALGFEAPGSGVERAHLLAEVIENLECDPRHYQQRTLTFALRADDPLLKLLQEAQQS
UniProt Q9NQI0, whole entry, looked up: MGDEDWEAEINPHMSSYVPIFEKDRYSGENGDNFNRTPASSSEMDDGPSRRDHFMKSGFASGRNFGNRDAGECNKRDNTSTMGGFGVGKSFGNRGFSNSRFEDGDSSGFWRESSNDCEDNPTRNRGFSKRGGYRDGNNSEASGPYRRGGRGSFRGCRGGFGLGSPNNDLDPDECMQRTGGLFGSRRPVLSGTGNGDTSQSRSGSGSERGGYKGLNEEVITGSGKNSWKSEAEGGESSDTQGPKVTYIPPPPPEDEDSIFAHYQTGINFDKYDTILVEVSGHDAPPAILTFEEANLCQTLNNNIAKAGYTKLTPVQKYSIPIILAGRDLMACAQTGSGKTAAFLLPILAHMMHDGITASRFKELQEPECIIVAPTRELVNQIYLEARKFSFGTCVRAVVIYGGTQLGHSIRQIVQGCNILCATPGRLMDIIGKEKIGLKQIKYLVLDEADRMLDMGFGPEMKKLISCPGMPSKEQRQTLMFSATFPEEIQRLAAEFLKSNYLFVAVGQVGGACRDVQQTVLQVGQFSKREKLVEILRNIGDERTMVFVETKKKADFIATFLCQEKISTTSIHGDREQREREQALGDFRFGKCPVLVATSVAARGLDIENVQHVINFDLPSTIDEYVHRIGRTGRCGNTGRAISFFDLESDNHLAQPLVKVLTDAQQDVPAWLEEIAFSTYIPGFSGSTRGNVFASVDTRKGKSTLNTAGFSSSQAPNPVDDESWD

[2] = compound: CC(=O)c1cnc2ccc(-c3cc(Cl)c(O)c(Cl)c3)nc2c1N[C@H]1CC[C@H](CN(C)C)CC1
Summary of the method: as §1

[3] = compound: CC(C)(C)Cn1c(N)nc2ccc(-c3[nH]c(C(C)(C)C)nc3-c3ccc(F)cc3)nc21 [ralimetinib]
Summary of the method: as §1

[4] = compound: CC(C)(O)CC(=O)NCCn1ccc2ncnc(Nc3ccc(Oc4cccc(C(F)(F)F)c4)c(Cl)c3)c21
Summary of the method: as §1

[5] = compound: CC(C)C1=C2N=C(C=C(N2N=C1)NCC3=CC=CC=C3)NCCCCCCN
Summary of the method: as §1

[6] = compound: CC1=C(C(CC(=O)N1)C2=CC=C(C=C2)C(F)(F)F)C(=O)NC3=C(C=C4C(=C3)C=NN4)F
Summary of the method: as §1

[7] = compound: CC1=C(C2=C(C=C1)C(=O)C3=CC=CC=C3N2CCCN)C
Summary of the method: as §1

[8] = compound: CC1=C(C=C(C=C1)NC(=O)C2=CC(=CC=C2)C(C)(C)C#N)NC3=CC4=C(C=C3)N=CN(C4=O)C
Summary of the method: as §1

[9] = compound: CC1=C(C=C(C=C1)NC(=O)C2=CC(=CC=C2)N(C)C)NC(=O)C3=CC=C(C=C3)O
Summary of the method: as §1

[10] = compound: CC1=CC=C(C=C1)SC2=C3C=C(SC3=CN=C2)C(=O)N
Summary of the method: as §1

Measured: log2 fold change

DDX46 (UniProt Q7L014)
inactive: [1] 0.002 | [2] -0.007 | [3] 0.021 | [4] 0.025 | [5] 0.03 | [6] -0.017 | [7] -0.025 | [8] -0.007 | [9] 0.032 | [10] 0.005

CYSTM1 (UniProt Q9H1C7)
inactive: [1] 0.128 | [2] 0.018 | [3] -0.052 | [4] -0.039 | [5] 0.014 | [6] -0.013 | [7] 0.076 | [8] 0.096 | [9] 0.042 | [10] -0.045

DDX41 (UniProt Q9UJV9)
inactive: [1] -0.033 | [2] 0.01 | [3] 0.022 | [4] 0.018 | [5] 0.029 | [6] 0.013 | [7] -0.049 | [8] 0.012 | [9] 0.01 | [10] 0.024

DDB2 (UniProt Q92466)
inactive: [1] 0.075 | [2] -0.016 | [3] 0.009 | [4] -0.033 | [5] -0.007 | [6] 0.091 | [7] -0.003 | [8] 0.009 | [9] 0 | [10] 0.01

DDOST (UniProt P39656)
inactive: [1] 0.013 | [2] 0.005 | [3] -0.03 | [4] -0.048 | [5] -0.012 | [6] 0 | [7] -0.01 | [8] 0.024 | [9] 0 | [10] -0.014

DDX54 isoform 2 (UniProt Q8TDD1)
inactive: [1] -0.005 | [2] 0.006 | [3] 0.036 | [4] 0.023 | [5] -0.001 | [6] 0.02 | [7] -0.054 | [8] -0.054 | [9] -0.006 | [10] 0.013

DBR1 (UniProt Q9UK59)
inactive: [1] -0.013 | [2] 0.006 | [3] 0.049 | [4] -0.012 | [5] -0.025 | [6] -0.002 | [7] 0.017 | [8] -0.012 | [9] -0.022 | [10] 0.024

DDX56 (UniProt Q9NY93)
inactive: [1] 0.035 | [2] -0.016 | [3] 0.031 | [4] -0.01 | [5] 0 | [6] 0.02 | [7] 0.014 | [8] 0.044 | [9] 0.001 | [10] 0.009

DDX5 (UniProt P17844)
inactive: [1] 0.004 | [2] -0.005 | [3] -0.016 | [4] 0.043 | [5] 0.02 | [6] 0.002 | [7] 0.033 | [8] -0.019 | [9] -0.008 | [10] 0.011

DAP3 (UniProt P51398)
inactive: [1] 0.006 | [2] -0.04 | [3] 0.029 | [4] -0.019 | [5] 0.013 | [6] -0.01 | [7] -0.078 | [8] 0.053 | [9] 0.031 | [10] -0.016

DCP1B (UniProt Q8IZD4)
inactive: [1] -0.284 | [5] 0.272 | [7] -0.084 | [8] -0.027

CYTH1 (UniProt Q15438)
inactive: [1] 0.01 | [2] 0.058 | [3] -0.119 | [4] 0.187 | [5] -0.047 | [6] 0.216 | [8] -0.034 | [9] -0.143 | [10] -0.079

DDHD2 (UniProt O94830)
inactive: [1] 0.005 | [2] -0.009 | [3] 0.037 | [4] -0.016 | [5] -0.01 | [6] 0.023 | [7] -0.035 | [8] 0.026 | [9] 0.01 | [10] -0.008

DBNL (UniProt Q9UJU6)
inactive: [1] 0.027 | [2] 0.081 | [5] -0.136 | [6] 0.061 | [7] -0.043 | [10] -0.073

DCAF10 (UniProt Q5QP82)
inactive: [1] 0.016 | [3] 0.016 | [4] 0.025 | [5] -0.023 | [6] -0.031 | [7] 0.052 | [8] -0.024 | [9] 0.01

DCTN2 isoform 3 (UniProt Q13561)
inactive: [1] 0.083 | [2] 0 | [3] -0.018 | [4] -0.007 | [5] -0.006 | [6] -0.036 | [7] -0.018 | [8] -0.002 | [9] -0.022 | [10] -0.007

DDR1 isoform 5 (UniProt Q08345)
inactive: [1] 0 | [3] 0.205 | [4] 0.021 | [6] -0.117 | [7] -0.099 | [8] 0.38 | [9] 0.117

DENND1C (UniProt Q8IV53)
inactive: [1] 0.056 | [3] 0.01 | [4] -0.147 | [5] -0.061 | [7] -0.077 | [8] 0.165 | [9] 0.01

DCAF12 (UniProt Q5T6F0)
inactive: [1] 0.068 | [3] 0.035 | [4] -0.054 | [5] -0.022 | [6] 0.03 | [7] 0.075 | [8] 0.013 | [9] -0.061

DEK (UniProt P35659)
inactive: [1] -0.002 | [2] 0.008 | [3] -0.008 | [4] -0.004 | [5] 0.018 | [6] -0.003 | [7] -0.024 | [8] -0.001 | [9] 0.012 | [10] 0.016

DDX28 (UniProt Q9NUL7)
inactive: [1] 0.073 | [3] -0.025 | [4] -0.026 | [5] 0.058 | [6] 0.036 | [7] -0.015 | [8] -0.042 | [9] -0.058

DCUN1D1 (UniProt C9JVE2)
inactive: [1] 0.225 | [2] 0.096 | [3] -0.098 | [4] -0.158 | [5] 0.011 | [7] -0.073 | [8] 0.293 | [9] -0.063 | [10] 0.189

DBF4 (UniProt Q9UBU7)
inactive: [1] -0.06 | [3] -0.048 | [4] -0.017 | [5] -0.01 | [6] -0.062 | [7] -0.058 | [8] -0.012 | [9] -0.042

Two consecutive records from above, for reference:
DEK (UniProt P35659)
inactive: [1] -0.002 | [2] 0.008 | [3] -0.008 | [4] -0.004 | [5] 0.018 | [6] -0.003 | [7] -0.024 | [8] -0.001 | [9] 0.012 | [10] 0.016

DDX28 (UniProt Q9NUL7)
inactive: [1] 0.073 | [3] -0.025 | [4] -0.026 | [5] 0.058 | [6] 0.036 | [7] -0.015 | [8] -0.042 | [9] -0.058

(next part)

DCPS (UniProt Q96C86)
inactive: [1] 0 | [2] -0.01 | [3] 0.005 | [4] -0.026 | [5] -0.02 | [6] -0.042 | [7] 0.012 | [8] 0.027 | [9] -0.013 | [10] -0.015

DAAM1 (UniProt Q9Y4D1)
inactive: [1] -0.013 | [2] -0.051 | [5] -0.145 | [7] 0.118 | [8] -0.1 | [10] 0.19

DENND4C (UniProt Q5VZ89)
inactive: [1] 0.023 | [2] -0.005 | [3] 0.036 | [4] 0.014 | [5] 0.034 | [6] -0.024 | [7] -0.017 | [8] -0.001 | [9] 0.032 | [10] 0.013

DENND5B isoform 2 (UniProt Q6ZUT9)
inactive: [1] -0.127 | [3] -0.016 | [4] -0.107 | [5] 0.063 | [6] -0.068 | [7] -0.046 | [9] 0.019

DDX46, A0A0C4DG89
inactive: [1] -0.211 | [2] 0.006 | [6] 0.157 | [7] -0.035 | [10] -0.024

DCAF4 (UniProt Q8WV16)
inactive: [1] 0.086 | [2] 0.009 | [6] -0.051 | [7] 0.05 | [8] 0.235 | [10] 0.009

DDX6 (UniProt P26196)
inactive: [1] -0.018 | [2] -0.028 | [3] 0.013 | [4] -0.007 | [5] -0.022 | [6] -0.016 | [7] 0.019 | [8] -0.011 | [9] 0.005 | [10] -0.009

DESI1 (UniProt Q6ICB0)
inactive: [1] 0.131 | [6] -0.021 | [7] 0.137 | [8] -0.015

CYTH2 (UniProt Q99418)
inactive: [1] 0.054 | [2] -0.013 | [3] 0.058 | [4] 0.075 | [5] -0.01 | [6] -0.05 | [7] 0.016 | [9] 0.047 | [10] -0.003

DDX4 (UniProt Q9NQI0)
inactive: [1] 0.019 | [2] -0.004 | [3] 0.04 | [4] 0.087 | [5] -0.032 | [6] 0.008 | [7] 0.1 | [9] -0.051 | [10] -0.026
